In all, about 320,000 compounds went through this assay and about 22,000 (6.9%) were called active. Inconclusive means that the source gave no clear call. Such entries were picked first, then a sample of the others. Calls come from the whole dose curve; as a rule, active = well fitted inhibition curve with a large enough effect; inconclusive = small, poorly fitted or top-dose-only effect, or another doubt; inactive = no such curve, though single readings can be large or run the other way. A potency beside an inconclusive call is a rough fit, not a confirmed value.
Experiment: Primary qHTS for delayed death inhibitors of the malarial parasite plastid, 96 hour incubation
Conditions: P. falciparum luciferase reporter growth; series mostly up to 28.7 µM
In short: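 Delayed-death screen, second-generation endpoint: infected erythrocytes, 2% hematocrit, 0.05% parasitemia final; 96 hours at 37 C, 5% CO2; luciferase detection reagent; luminescence decrease equals reduced growth.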
Potency is the fitted concentration of half-maximal effect.

SMILES	Potency
O=C(Nc1ccccc1O)c1ccc2c(c1)C(=O)N(Cc1ccco1)C2=O	inconclusive: 13.1 µM [inhibitor, single point]
CCCCCOC(=O)Cc1c(O)c2ccccc2[nH]c1=O	inactive
O/C(=C\c1nc2ccccc2[nH]1)c1cccs1	inconclusive: 4.15 µM [inhibitor, partial curve]
CCOC(=O)c1c(-c2ccc(-c3ccccc3)cc2)csc1NC(=O)CNCCN(C)C	inconclusive: 1.47 µM [inhibitor, full curve]
Cc1cccc(C)c1NC(=O)COC(=O)C1CC1	inconclusive: 0.037 µM [inhibitor, single point]
Cc1ccc(C2(O)CN3CCC2CC3)cc1 (stereo not given)	inconclusive: 11.7 µM [inhibitor, single point]
COC(=O)[C@H]1Cc2c([nH]c3ccccc23)[C@H](c2ccccc2)N1	inactive
CN(C)c1ccc(C(CNC(=O)c2ccccc2F)c2c[nH]c3ccccc23)cc1 (stereo not given)	inconclusive: 5.86 µM [inhibitor, partial curve, poor fit]
COc1ccc(S(=O)(=O)N2CCOCC2)cc1NC(=O)COc1cccnc1[N+](=O)[O-]	inactive
C/C(=N\Nc1ccc2nncn2n1)c1ccc(Br)s1	inactive
Cc1ccc2nc(/C(C#N)=C\c3ccc(N4CCOCC4)o3)[nH]c2c1	inconclusive: 13.1 µM [inhibitor, partial curve, poor fit]
Cn1c(=O)oc2cc(S(=O)(=O)N3CCN(c4cccc(Cl)c4)CC3)ccc21	inconclusive: 3.29 µM [inhibitor, full curve]
O=C(N/N=C\c1cc2c(cc1[N+](=O)[O-])OCO2)c1cccs1	inconclusive: 18.5 µM [inhibitor, single point]
COCCn1c(SCC(=O)Nc2sccc2C(N)=O)nnc1-c1ccncc1	inconclusive: 18.5 µM [inhibitor, single point]
CCCCn1c(SCC(=O)NCc2cccs2)nc2c1c(=O)n(C)c(=O)n2C	active: 9.28 µM
Cc1ccc(S(=O)(=O)N2CCC(C(=O)NCC(C)(C)N3CCOCC3)CC2)c(C)c1	inconclusive: 18.5 µM [inhibitor, single point]
CCOC(=O)Cn1ncn(-c2ccc(OC(F)(F)F)cc2)c1=O	inconclusive: 14.7 µM [inhibitor, partial curve]
CC(C)(C)c1[nH]nc2c1C(c1cccnc1)C(C#N)=C(N)O2 (stereo not given)	inconclusive: 4.65 µM [inhibitor, partial curve, poor fit]
Cc1nc2c3cnn(-c4ccccc4)c3ncn2n1	inconclusive: 18.5 µM [inhibitor, single point]
Cc1oc(-c2ccc(Cl)cc2)nc1CN1CCC(C(=O)NCCCN2CCCC2=O)CC1	inconclusive: 4.15 µM [inhibitor, single point]
CCc1ccc(NC(=O)Cc2ccc(-n3cccc3)cc2)cc1	active: 2.08 µM
Cc1cc(C(=O)NC2CCCc3c2cnn3-c2ccc(C)c(C)c2)nc(C)n1 (stereo not given)	inactive
COc1ccc(C(=O)NNC(=O)C(=O)NC(C)c2ccccc2)cc1OC (stereo not given)	inconclusive: 4.15 µM [inhibitor, partial curve, poor fit]
CC(=O)Nc1ccc(N2C(=O)CC(Sc3nccc(C)n3)C2=O)cc1 (stereo not given)	inconclusive: 2.62 µM [inhibitor, full curve]

Entries shown so far that contain a Cl atom (2):
SMILES	Potency
Cn1c(=O)oc2cc(S(=O)(=O)N3CCN(c4cccc(Cl)c4)CC3)ccc21	inconclusive: 3.29 µM [inhibitor, full curve]
Cc1oc(-c2ccc(Cl)cc2)nc1CN1CCC(C(=O)NCCCN2CCCC2=O)CC1	inconclusive: 4.15 µM [inhibitor, single point]

The list goes on.

SMILES	Potency
O=C(NNC(=O)C1CCN(Cc2ccccc2)CC1)c1cccc(Cl)c1	inactive
S=C(Nc1ccc(Br)cc1Cl)N1CCN(c2ccccn2)CC1	inconclusive: 18.5 µM [inhibitor, single point]
CCCN(C(=O)COC(=O)CC1CCCCC1)c1c(N)n(Cc2ccccc2)c(=O)[nH]c1=O	inconclusive: 8.28 µM [inhibitor, partial curve, poor fit]
NS(=O)(=O)c1ccc(NC=C2C(=O)OC3(CCCCC3)OC2=O)cc1	inconclusive: 10.4 µM [inhibitor, partial curve, poor fit]
CCOC(=O)c1ccc(NC(=O)CNC(=O)C2CCCCC2)cc1	inactive
CCCC(=O)N(Cc1cc(=O)[nH]c2ccccc12)c1cccc(C)c1	active: 8.28 µM
CCN1C(=O)c2n[nH]c(C(=O)OC)c2C1=O	active: 10.4 µM
CC(=O)Nc1ccc(NC(=O)CSc2nnc(-c3ccco3)n2Cc2ccco2)cc1	inconclusive: 18.5 µM [inhibitor, single point]
O=C(N/N=C/c1ccccn1)C(O)c1ccccc1 (stereo not given)	inactive
CCOc1ccc(CCNC(=O)COC(=O)c2ccc(C)c([N+](=O)[O-])c2)cc1OCC	inconclusive: 18.5 µM [inhibitor, single point]
CC(NC(=O)c1ccccc1)C(=O)OCC(=O)c1ccc(Br)cc1 (stereo not given)	inactive
COc1ccc(CCNC(=O)C(NC(=O)OCc2ccccc2)C(C)C)cc1OC (stereo not given)	inconclusive: 13.1 µM [inhibitor, single point]
COc1ccc(-c2noc(CN(C(=O)c3ccc4c(c3)OCO4)C(C)C)n2)cc1OC	inactive
COc1ccc(CNC(=O)c2c(O)c3ccccc3n(C)c2=O)cc1	inconclusive: 18.5 µM [inhibitor, single point]
Cc1ccc2c(c1)CCCN2C(=O)C1CCCO1 (stereo not given)	inconclusive: 18.5 µM [inhibitor, single point]
O=C(Nc1ccccn1)c1ccc(C(=O)Nc2ccccn2)cc1	inactive
Cc1cc(C)cc(N(C(C)C(=O)NCCC2=CCCCC2)S(C)(=O)=O)c1 (stereo not given)	inconclusive: 13.1 µM [inhibitor, single point]
Cc1cc(NC(=O)CSc2ccc3nnc(-c4ccc(Cl)cc4)n3n2)no1	inactive
Cc1nc(SCc2ccccc2F)c2oc3ccccc3c2n1	active: 8.28 µM
COc1ccc(C2c3ccc4ccccc4c3Oc3ncn4nc(Cc5ccccc5)nc4c32)cc1OC (stereo not given)	inactive
O=C(O)CNC(=O)c1ccc(NC(=O)/C(=C/c2ccccc2)NC(=O)c2ccco2)cc1	inconclusive: 4.15 µM [inhibitor, partial curve, poor fit]
CC(=O)N1CCc2cc(C(=O)CN3CCN(c4ccccc4F)CC3)ccc21	inactive
CCOC(=O)c1ccc2[nH]c(C)c(CCC(C)=O)c(=O)c2c1	inconclusive: 3.29 µM [inhibitor, full curve, poor fit]
COc1cccc(CN2CCC(N(CCc3ccccc3)Cc3ccccc3)CC2)c1OC	inactive

SMILES	Potency
CCC(=O)N1c2ccccc2NC2=C(C(=O)CCC2)C1c1ccccc1 (stereo not given)	inconclusive: 16.5 µM [inhibitor, single point]
COc1ccc(CCn2nnnc2C(C(C)C)N2CCC(C(N)=O)CC2)cc1OC (stereo not given)	inconclusive: 10.4 µM [inhibitor, partial curve, poor fit]
Cc1ccc(-n2c(C)cn(C(=O)c3ccccc3)c2=S)cc1	inactive
COc1cc2c(cc1OC)CN(CC(O)c1ccccc1)CC2 (stereo not given)	inconclusive: 16.5 µM [inhibitor, single point]
CCOC(=O)c1c(NC(=O)Cn2nnc(-c3ccccc3Cl)n2)sc(C)c1C	inconclusive: 3.29 µM [inhibitor, single point]
CCN(CC)S(=O)(=O)c1cc(NC(=O)CSc2nnc(N)s2)ccc1C	inconclusive: 10.4 µM [inhibitor, single point]
Cc1cc(Cl)ccc1NC(=S)NCc1cccs1	inconclusive: 2.94 µM [inhibitor, single point]
CC(=O)N1CCc2cc(S(=O)(=O)NC(CC(C)C)C(=O)N3CCn4c3nc3ccccc34)ccc21 (stereo not given)	inconclusive: 10.4 µM [inhibitor, single point]
COc1cccc(CNC(=O)COC(=O)C2CCN(c3ccc(C(F)(F)F)cn3)CC2)c1	inactive
Cn1c(=O)oc2cc(S(=O)(=O)N3CCCC(C(=O)N4CCc5ccccc5C4)C3)ccc21 (stereo not given)	inconclusive: 10.4 µM [inhibitor, single point]
Fc1ccc(F)c(CNc2ncnc3cc(Cl)ccc23)c1	inconclusive: 13.1 µM [inhibitor, single point]
CN(Cc1ccccn1)C(=O)C1CCC(=O)N(CCc2ccc(Cl)cc2)C1 (stereo not given)	inactive
O=C(CCc1nc2ccccc2c(=O)[nH]1)Nc1cc(Cl)ccc1N1CCCC1	inconclusive: 16.5 µM [inhibitor, single point]
Cc1ccc(-c2c[n+](CC(=O)Nc3ccc(C)cc3C)c3n2CCC3)cc1	inconclusive: 10.4 µM [inhibitor, partial curve]
S=C(Nc1ccccc1Oc1ccccc1)NC1CCCC1	inconclusive: 3.7 µM [inhibitor, single point]
Cc1nnc(SCC(=O)NC(=O)NCc2ccco2)s1	inconclusive: 0.415 µM [inhibitor, partial curve, poor fit]
CC(=O)Nc1cccc(-n2nnc(SCC(=O)c3ccccc3)n2)c1	inactive
Fc1ccc(/C=N/Nc2nc3ccccc3[nH]2)cc1F	active: 0.522 µM
Cc1ccc(OCCNC(=O)c2cc(C(=O)NCCOc3ccc(C)cc3)cc([N+](=O)[O-])c2)cc1	active: 1.17 µM
O=C(Oc1ccc2ccccc2c1Cl)N1CCCCCC1	active: 3.29 µM
Cc1ccc(NC(=O)CS(=O)CC(=O)N(c2ccc(C)cc2)C(C)C(=O)NC2CCCCC2)cc1 (stereo not given)	inconclusive: 1.17 µM [inhibitor, partial curve, poor fit]
O=C1CN(C(=O)c2ccccc2F)C(c2ccc(F)cc2)c2cc(Br)ccc2N1 (stereo not given)	inconclusive: 2.08 µM [inhibitor, partial curve, poor fit]

Four compounds picked at random from the list so far:
SMILES	Potency
CCOC(=O)c1c(NC(=O)Cn2nnc(-c3ccccc3Cl)n2)sc(C)c1C	inconclusive: 3.29 µM [inhibitor, single point]
Fc1ccc(F)c(CNc2ncnc3cc(Cl)ccc23)c1	inconclusive: 13.1 µM [inhibitor, single point]
CN(Cc1ccccn1)C(=O)C1CCC(=O)N(CCc2ccc(Cl)cc2)C1 (stereo not given)	inactive
Fc1ccc(/C=N/Nc2nc3ccccc3[nH]2)cc1F	active: 0.522 µM

From PubChem BioAssay AID504834 (National Center for Advancing Translational Sciences (NCATS), 2011)
